According to paper PMC3878827, “Synthesis and biological characterisation of ^18F-SIG343 and ^18F-SIG353, novel and high selectivity σ2 radiotracers, for tumour imaging properties” (EJNMMI Research, 2013):

Assay: Metabolite studies (radio-TLC and radio-HPLC) in A375 tumour-bearing mice
Assay type: in vivo
Method: The amount of intact ^18F-SIG343 and ^18F-SIG353 in the plasma, urine, tumour and brain cortex was quantified by thin layer chromatography (TLC) and radio-HPLC analysis. Mice were injected with 20 MBq of the radiotracer in 100 μL of saline. Mice were sacrificed 15, 60 and 120 min post injection of radiotracer. Whole organ samples of brain cortex and tumour samples (10 to 60 mg, minced) were added to unlabelled SIG343 or SIG353 (5 μL; 1 mg/mL), KF (5 μL; 1 mg/mL), MeCN (0.3 mL) and water (0.2 mL). Samples were exposed to an ultrasonic probe (Ultrasonic processor, Misonix Inc., Farmingdale, NY, USA) for 2 min before being centrifuged (5,000 rpm, 5 min). Plasma (50 μL) or urine (10 μL) samples were added to unlabelled SIG343 or SIG353, KF and 0.5 mL MeCN. Plasma samples were centrifuged (Heraeus Biofuge PrimoR, Thermo Fisher Scientific, Hudson, NH, USA; 5,000 rpm, 5 min), and the supernatant was removed and the radioactivity of the precipitated pellets was measured using a gamma counter to determine the extraction efficiency. If necessary, multiple extractions were performed to ensure maximum recovery of the radioactivity. An appropriate amount of the supernatant, based on the activity level (cpm), was collected (approximately 100 μL), diluted with water (up to 1.5 mL) for HPLC analysis or evaporated to dryness under vacuum for TLC analysis.
The TLC sample was reconstituted in methanol (25 to 50 μL) and mixed before being applied to the concentrating zone of the silica TLC plate. In a separate lane, the corresponding ^18F-labelled and ^19F-standard was also spotted. The TLC solvent systems of EtOAc/MeOH (70:30) were utilised for ^18F-SIG343 (rf 0.50) and ^18F-SIG353 (rf 0.55). The UV of the standard was identified using a UV lamp, while the movement and integration of the radioactive spots were visualised and measured using a phosphorimager (BAS 2500 Phosphorimager, Fujifilm, Tokyo, Japan) with Fujifilm Multigage 3.0 software. The intact radiotracer was identified as the radioactive spot containing the identical rf value to the corresponding ^19F-standard seen under the UV lamp. The integration of the active spot in relation to all the activity in the TLC lane gave the percentage of intact radiotracer.
Radio-HPLC analysis was performed following the method of Hilton et al.. A pre-column (Waters Oasis HLB, 25 μm, 20 × 3.9 mm) and a reversed phase HPLC column (Phenomenex Bondclone C18, 10 μm, 250 × 4.6 mm or Phenomenex Synergi Max-RP 80A C18, 4 μm, 250 × 4.6 mm) in series, with a switching valve between columns was utilised. The pre-column was washed with 1% acetonitrile in water for 3 min at 1.5 mL/min and then the solvent direction was switched to include the HPLC column. Both columns in series were then eluted over 10 min. The radioactivity peak corresponding to the authentic radiotracer was compared to the total activity registered in the radiochromatogram to give the fraction of unchanged radiotracer in the sample.

SMILES	Sample recovery (recovery of the radioactivity), Cortex (15 min post injection)	Sample recovery (recovery of the radioactivity), Plasma (15 min post injection)	Sample recovery (recovery of the radioactivity), Tumour (15 min post injection)	Sample recovery (recovery of the radioactivity), Cortex (60 min post injection)	Sample recovery (recovery of the radioactivity), Plasma (60 min post injection)	Sample recovery (recovery of the radioactivity), Tumour (60 min post injection)	Sample recovery (recovery of the radioactivity), Cortex (120 min post injection)	Sample recovery (recovery of the radioactivity), Plasma (120 min post injection)	Sample recovery (recovery of the radioactivity), Tumour (120 min post injection)
COc1cc2c(cc1OC)CN(CCCCN1C(=O)c3ccc([18F])cc3C1=O)CC2 [^18F-SIG343]	92%	89 ± 14.4%	86%	88%	86 ± 16.4%	90%	90%	91 ± 9.0%	86%
COc1cc2c(cc1OC)CN(CCCCCN1C(=O)c3ccc([18F])cc3C1=O)CC2 [^18F-SIG353]	91%	92 ± 6.8%	86%	93%	88 ± 10.7%	90%		94 ± 5.3%	81%
